Literature values as cited in patent publication US10253355B2, “Instrument and system for rapid microorganism identification and antimicrobial agent susceptibility testing” (Accelerate Diagnostics, Inc., priority 2015, dated 2019).
Where two headings read alike, the source gives them in different places. At least one structure is not confirmed: it was looked up by name or label, or the drawing left a doubt.

How the values were obtained:
[1] = system: Enterococcus faecalis ATCC 29212; conditions: cited from earlier work; for Organism QC Range (MIC): AST QC panel (Table 9), CLSI recommended isolate E. faecalis ATCC 29212; for Expected (MIC acceptance range): E. faecalis ATCC 29212
[2] = system: Pseudomonas aeruginosa ATCC 27853; conditions: AST QC panel (Table 9); CLSI recommended isolate P. aeruginosa ATCC 27853; in µg/mL (unit assumed); cited from earlier work
[3] = system: Escherichia coli ATCC 25922; conditions: in µg/mL (unit assumed), cited from earlier work; for Expected (MIC acceptance range): E. coli ATCC 25922
[4] = ID and AST report (Table 11), in µg/mL (unit assumed)

## CCO/N=C(\C(=O)N[C@@H]1C(=O)N2C(C(=O)[O-])=C(Sc3nc(-c4cc[n+](C)cc4)cs3)CS[C@H]12)c1nsc(N)n1 [Ceftaroline]
[1]; in µg/mL (unit assumed)
  Organism QC Range (MIC): 0.25-2
[1]; AST only report (Table 10)
  Expected (MIC acceptance range): 0.25-2
[1]; [4]
  Expected (MIC acceptance range): 0.25-2

## C[C@H]1c2cccc(O)c2C(=O)C2=C(O)[C@]3(O)C(=O)C(C(N)=O)=C(O)[C@@H](N(C)C)[C@@H]3[C@@H](O)[C@@H]21 [Doxycycline]
[1]; in µg/mL (unit assumed)
  Organism QC Range (MIC): 2-8
[1]; AST only report (Table 10)
  Expected (MIC acceptance range): 2-8
[1]; [4]
  Expected (MIC acceptance range): 2-8

## C[C@@H](O)[C@H]1C(=O)N2C(C(=O)O)=C(SCCN=CN)C[C@H]12 [Imipenem]
[2]
  Organism QC Range (MIC): 1-4

## CN(C)c1ccc(O)c2c1C[C@H]1C[C@H]3[C@H](N(C)C)C(O)=C(C(N)=O)C(=O)[C@@]3(O)C(O)=C1C2=O [Minocycline]
[3]; AST QC panel (Table 9), CLSI recommended isolate E. coli ATCC 25922
  Organism QC Range (MIC): 0.25-1
[3]; AST only report (Table 10)
  Expected (MIC acceptance range): 0.25-1
[3]; ID and AST report (Table 11)
  Expected (MIC acceptance range): 0.25-1
